Laboratory results from PMC8659060, “Neuroprotective Potential of Synthetic Mono-Carbonyl Curcumin Analogs Assessed by Molecular Docking Studies” (Molecules, 2021).

System: T1, BChE in the hippocampus region of mouse brain
T1 construct: from tissue; host or cells: mouse brain hippocampus (supernatant of homogenate)
Type: in vivo
Conditions: pretreatment with donepezil, then scopolamine, n = 6
Description: The groups were kept for 7 days at various treatments doses.
The mice were sacrificed immediately after the behavioral study by cervical dislocation to provide quick and painless death to each animal before decapitation. Brain of each animal was excised in phosphate buffer saline (chilled) and incorporated into biochemical biomarker analysis.
Cholinesterase (AChE and BChE) levels were determined in the excised brain hippocampus using Ellman’s method with slight modification. Supernatant (0.4 mL), 0.1 M/L, pH 8 phosphate buffer (2.6 mL), and 100 µL of DTNB (5,5′-dithiobis-2-nitrobenzoic acid) and were added into cuvette and mixed. Spectrophotometer at 412 nm was run and absorbance was measured several times, then […] acetyl thiocholine iodide/butyrylthiocholine chloride was mixed into the reaction as substrate at an interval of 2 min, and variation in absorbance was noted and the changes in absorbance per min were recorded. The following formula was used for calculation of cholinesterase level: R = 5.74 × 10^−4 × A/CO where ‘R’ is the moles (rate) of substrate hydrolyzed/min/mg of protein, (A) is the change in absorbance/min, and ‘CO’ is concentration (20 mg/mL) of protein.

COc1cc2c(cc1OC)C(=O)C(CC1CCN(Cc3ccccc3)CC1)C2 (stereo not shown) [Donepezil, reference compound]
Hippocampus BChE level: 20.69 ± 1.73 µmol/min/mg of protein
